This note sets out measurements from paper doi:10.1101/2020.02.12.946293.

Results are given in words; binding and its absence hold for the method and conditions named. Some results given as binding are weak or reduced against the parent protein; the word gives no strength.

In test [1] the target is yMsh4-yMsh5 (S. cerevisiae) (UniProt P40965+Q12175). Nature of the test: pull-down.
For another test, the target named is T1, yMsh5 (S. cerevisiae) (UniProt Q12175).
T1 sequence: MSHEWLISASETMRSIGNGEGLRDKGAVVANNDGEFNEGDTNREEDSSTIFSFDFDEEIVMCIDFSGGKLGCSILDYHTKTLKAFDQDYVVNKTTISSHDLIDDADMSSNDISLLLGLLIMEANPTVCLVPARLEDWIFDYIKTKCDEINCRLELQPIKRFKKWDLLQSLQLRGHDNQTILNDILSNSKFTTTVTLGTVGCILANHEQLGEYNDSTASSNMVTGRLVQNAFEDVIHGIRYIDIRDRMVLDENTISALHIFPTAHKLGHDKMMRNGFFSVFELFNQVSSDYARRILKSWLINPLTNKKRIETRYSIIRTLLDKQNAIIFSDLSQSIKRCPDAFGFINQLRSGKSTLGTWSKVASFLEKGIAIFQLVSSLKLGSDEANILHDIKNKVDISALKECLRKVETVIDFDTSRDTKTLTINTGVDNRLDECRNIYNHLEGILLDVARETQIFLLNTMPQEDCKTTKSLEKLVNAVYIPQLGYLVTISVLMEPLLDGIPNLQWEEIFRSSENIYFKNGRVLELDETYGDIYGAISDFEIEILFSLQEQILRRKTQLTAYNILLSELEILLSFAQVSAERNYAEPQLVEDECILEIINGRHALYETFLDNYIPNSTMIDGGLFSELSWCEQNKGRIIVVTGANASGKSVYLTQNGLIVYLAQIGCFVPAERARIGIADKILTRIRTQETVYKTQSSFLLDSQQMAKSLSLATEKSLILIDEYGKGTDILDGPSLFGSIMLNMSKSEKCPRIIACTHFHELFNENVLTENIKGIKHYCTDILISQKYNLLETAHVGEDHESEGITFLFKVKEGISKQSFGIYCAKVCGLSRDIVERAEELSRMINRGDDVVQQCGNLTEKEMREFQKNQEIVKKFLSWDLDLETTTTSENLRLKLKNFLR
Nature of the test: co-purification by tandem affinity.

B1: yMlh1-yMlh3 (complex, UniProt P38920;Q12083)
chain 1: MSLRIKALDASVVNKIAAGEIIISPVNALKEMMENSIDANATMIDILVKEGGIKVLQITDNGSGINKADLPILCERFTTSKLQKFEDLSQIQTYGFRGEALASISHVARVTVTTKVKEDRCAWRVSYAEGKMLESPKPVAGKDGTTILVEDLFFNIPSRLRALRSHNDEYSKILDVVGRYAIHSKDIGFSCKKFGDSNYSLSVKPSYTVQDRIRTVFNKSVASNLITFHISKVEDLNLESVDGKVCNLNFISKKSISPIFFINNRLVTCDLLRRALNSVYSNYLPKGNRPFIYLGIVIDPAAVDVNVHPTKREVRFLSQDEIIEKIANQLHAELSAIDTSRTFKASSISTNKPESLIPFNDTIESDRNRKSLRQAQVVENSYTTANSQLRKAKRQENKLVRIDASQAKITSFLSSSQQFNFEGSSTKRQLSEPKVTNVSHSQEAEKLTLNESEQPRDANTINDNDLKDQPKKKQKLGDYKVPSIADDEKNALPISKDGYIRVPKERVNVNLTSIKKLREKVDDSIHRELTDIFANLNYVGVVDEERRLAAIQHDLKLFLIDYGSVCYELFYQIGLTDFANFGKINLQSTNVSDDIVLYNLLSEFDELNDDASKEKIISKIWDMSSMLNEYYSIELVNDGLDNDLKSVKLKSLPLLLKGYIPSLVKLPFFIYRLGKEVDWEDEQECLDGILREIALLYIPDMVPKVDTSDASLSEDEKAQFINRKEHISSLLEHVLFPCIKRRFLAPRHILKDVVEIANLPDLYKVFERC
chain 2: MSQHIRKLDSDVSERLKSQACTVSLASAVREIVQNSVDAHATTIDVMIDLPNLSFAVYDDGIGLTRSDLNILATQNYTSKIRKMNDLVTMKTYGYRGDALYSISNVSNLFVCSKKKDYNSAWMRKFPSKSVMLSENTILPIDPFWKICPWSRTKSGTVVIVEDMLYNLPVRRRILKEEPPFKTFNTIKADMLQILVMHPMISLNVQYTDKLRINTEVLFRSKNITEGLTKHQQMSQVLRNVFGAIIPPDMLKKVSLKFNEYQIEGIISKMPVGLKDLQFIYINGRRYADSAFQGYVDSLFQAQDFGEKGMSLLKTKSVGKPYRSHPVFILDVRCPQTIDDLLQDPAKKIVKPSHIRTIEPLIVKTIRSFLTFQGYLTPDKSDSSFEIVNCSQKTATLPDSRIQISKRNQVLNSKMKIARINSYIGKPAVNGCRINNSTINYEKIKNIRIDGQKSRLRNKLSSRPYDSGFTEDYDSIGKTITDFSISRSVLAKYEVINQVDKKFILIRCLDQSIHNCPLLVLVDQHACDERIRLEELFYSLLTEVVTGTFVARDLKDCCIEVDRTEADLFKHYQSEFKKWGIGYETIEGTMETSLLEIKTLPEMLTSKYNGDKDYLKMVLLQHAHDLKDFKKLPMDLSHFENYTSVDKLYWWKYSSCVPTVFHEILNSKACRSAVMFGDELTRQECIILISKLSRCHNPFECAHGRPSMVPIAELK
As for B1, in test [1], the binding entry was “binds”.

B2: yMsh4 (protein, UniProt P40965 1-878)
chain: MSESNLSSFISTNYFNLRSAANSSNSISKPSTKKSIRNQKSPTNISSWALKKKTLQIAETTWENNEKDSTHSHYLMTGSMASRTATSLSRYSTNASLLGPSIDCVLCCIYEVPRDISTRIGLCIINCNTGQMYLSDFMDSQIYIRVVHKLQIYQPTEILIPSSSLAPTVSKLATMIKFNVAETVKIEEGSRKCFNSQDGLAAITKYLMDDTKKDLKIEEIIDKTFALCAASAAISYMEEIISKSSRNLNAFRKLRIQFEGTENTMLIDSKTVRGLELVENKLDKNGISLWKFLDTTSTKMGQRSLRNSILQPLTDRGSIEMRLEALEELKANDDLLQKLRLEMKSLPDLDKLFSRLLCINHSAIKPDQRINYVLLLKETLQSVKSLKDALNDQLIQSRLISETKKIFNNDAIMEIEKLINSCINEDCVWASSAIQLLNQRSYAVKSDSNGLLDVSRQIYKEVKEEFFREVEDLTAKNKINLDHNYDSARGFYLRIKRQEFTDDVATLPDVFISRTIKKNYIECTTLNIIKKNARLKEVMEEILLLSEETVDELLDKIATHISELFMIAEAVAILDLVCSFTYNLKENNYTIPIFTNNLLIRDSRHPLLEKVLKNFVPNTISSTKHSSSLQIITGCNMSGKSVYLKQVALICIMAQMGSGIPALYGSFPVFKRLHARVCNDSMELTSSNFGFEMKEMAYFLDDINTETLLILDELGRGSSIADGFCVSLAVTEHLLRTEATVFLSTHFQDIPKIMSKKPAVSHLHMDAVLLNDNSVKMNYQLTQKSVAIENSGIRVVKKIFNPDIIAEAYNIHSLLKIAKARTENEDSNGVVDQKTINQMKRIHNLVAILKECAGNEKEPLTLGKLKEINSDFIENFEE
As to B2, the binding result in the test with yMsh5 (S. cerevisiae) was “binds”.
